± gives the uncertainty stated by the source. Many of these values have a large error.
Experiment: self-splicing fitness, log relative to wild type (ln ratio); higher = more splicing; Tetrahymena group I intron in knt gene, E. coli kanamycin selection, DiMSum; sequences stand for … in CUCUCU…GGAGGGAAAAGUUAUCAGGCAUGCACCUGGUAGCUAGUCUUUAAACCAAUAGAUUGCAUCGGUUUAAAAGGCAAGACCGUCAAAUUGCGGGAAAGGGGUCAACAGCCGUUCAGUACCAAGUCUCAGGGGAAACUUUGAGAUGGCCUUGCAAAGGGUAUGGUAAUAAGCUGACGGACAUGGUCCUAACCACGCAGCCAAGUCCUAAGUCAACAGAUCUUCUGUUGAUAUGGAUGCAGUUCACAGACUAAAUGUCGGUCGGGGAAGAUGUAUUCUUCUCAUAAGAUAUAGUCGGACCUCUCCUUAAUGGGAGCUAGCGGAUGAAGUGAUGCAACACUGGAGCCGCUGGGAACUAAUUUGUAUGCGAAAGUAUAUUGAUUAGUUUUGGAGUACUCGUGGUCG
How it was run: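 Colonies from six replicate transformations of E. coli BL21(DE3) were pooled and amplicon-sequenced on an Illumina HiSeq 2500. The library placed an intron with all eight P1ex-region nucleotides randomised inside the knt kanamycin-resistance gene on pET-22b(+), and cells grew overnight at 37°C or 30°C on LB agar with or without 25 μg/mL kanamycin (plus 100 μg/mL carbenicillin, 50 μM IPTG, 0.2% rhamnose). Fitness is the DiMSum error-weighted combination of wild-type-normalised replicate fold changes, kanamycin versus none.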

UAUUAGCAAUAUUACGUUCC
self-splicing fitness (ln) (30 °C): -3.37 ± 0.74 | self-splicing fitness (ln) (37 °C): -1.37 ± 1.2

CAAAAGCAAUAUUACGUGGU
self-splicing fitness (ln) (30 °C): -3.65 ± 0.11 | self-splicing fitness (ln) (37 °C): -2.49 ± 0.11

AACUAGCAAUAUUACGCCAC
self-splicing fitness (ln) (30 °C): -5.03 ± 1

AGGGAGCAAUAUUACGGGAA
self-splicing fitness (ln) (30 °C): -1.37 ± 0.38 | self-splicing fitness (ln) (37 °C): -2.58 ± 0.37

CUGCAGCAAUAUUACGUUAG
self-splicing fitness (ln) (30 °C): -2.97 ± 0.1 | self-splicing fitness (ln) (37 °C): -1.19 ± 0.1

UGUGAGCAAUAUUACGCUGA
self-splicing fitness (ln) (37 °C): -0.916 ± 0.59

GAGGAGCAAUAUUACGAGGG
self-splicing fitness (ln) (30 °C): -2.68 ± 0.52

GGAGAGCAAUAUUACGUACG
self-splicing fitness (ln) (37 °C): -2.26 ± 0.55

AGGGAGCAAUAUUACGUAGG
self-splicing fitness (ln) (30 °C): -4.01 ± 0.52

GCGGAGCAAUAUUACGGGCC
self-splicing fitness (ln) (37 °C): -0.458 ± 0.79

CCCAAGCAAUAUUACGCAUG
self-splicing fitness (ln) (30 °C): -3.29 ± 0.2 | self-splicing fitness (ln) (37 °C): -2.34 ± 0.22

— the supplement of paper PMC7877785
